Earlier results in patent US20020055099A1, “SEQUENTIAL CDNA LIBRARY AND USES THEREOF” (priority 1999, published 2002).
At least one structure is not confirmed: it was looked up by name or label, or the drawing left a doubt.

Test system: HO-1 human melanoma cells
Settings: HO-1 cells; IFN-β 2000 units/ml, MEZ 10 ng/ml where printed; cited from earlier work

CC1=C(/C=C/C(C)=C/C=C/C(C)=C/C(=O)O)C(C)(C)CCC1 [retinoic acid]
effect on HO-1 cell growth: without altering cell growth
melanin synthesis / differentiation marker: induces melanin synthesis
